Measured values reported in patent US20020062009A1 (GlaxoSmithKline, published 2002).
These are yes or no findings as the source states them, for the method shown. Some entries that bind do so weakly or less than the wild type.

Biological target: T1, human erythropoietin receptor (EPOr), recombinant entire extracellular domain (human) (UniProt P19235)
T1 sequence (looked up): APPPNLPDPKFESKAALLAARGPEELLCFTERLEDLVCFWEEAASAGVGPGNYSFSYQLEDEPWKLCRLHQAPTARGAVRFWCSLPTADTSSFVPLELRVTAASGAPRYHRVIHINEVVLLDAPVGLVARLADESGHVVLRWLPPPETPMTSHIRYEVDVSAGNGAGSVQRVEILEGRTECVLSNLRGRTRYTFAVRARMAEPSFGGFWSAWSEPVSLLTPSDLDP
Assay: ELISA; EPOr extracellular domain adsorbed on plate, detected with anti-human H+L enzyme conjugate

- binding: binds
B1: HZ3G9, humanized variant of 3G9 (human frameworks) (antibody, IgG1, V domains shown)
VH: QVQLVQSGAEVKKPGASVKVSCKASGSTFTSYWMHWVKQAPGQGLEWIGRIDPNSGGTKDNEKFKSKATLTVDKSTSTAYMELSSLRSEDTAVYYCARETYYDSSFAYWGQGTMVTVSA
VL: DIVMTQSPSSLSASVGDRVTITCKASQNVGTNVAWYQQKPGKAPKALIYSASYRYSGVPDRFSGSGSGTDFTLTISSLQPEDFATYYCQQYNSYPLTFGGGT
